# Test system: primary forebrain neurons
# Details: rescreen, 12.5 μM, 24 h, vs DMSO wells
# Procedure: Primary forebrain cell culture and maintenance. Forebrains of P0 Mt or Mt/Ai14 pups without olfactory bulbs and meninges were collected and placed in ice cold Ca^2+ and Mg^2+ free HBSS supplemented with 2 μg/ml gentamicin, 25 mM D-glucose, 1 mM pyruvate and 20 mM HEPES. Brain tissue was digested with 0.6 mg/ml papain at 37° C. for 20 min. Forebrains were washed with plating media [Neurobasal (Gibco), 5% FBS, 4 mM GlutaMAX (Gibco), 2 μg/ml gentamicin]. The tissue was gently triturated, allowed to settle and the supernatant was filtered through a 40 μm mesh-sized cell strainer. Cells were centrifuged at 420×g for 4 min and resuspended in plating media. 15,000 cells per well were plated with 2×10^8 viral particles/ml onto black Greiner μClear (Cat #781946) or Ultra-Low Base Aurora with evaporation barrier (Cat #ABE201201B) 384-well plates (80 μl/well) pre-coated with poly-D-lysine for the primary screen and rescreen, respectively. Plating and media changes were performed using an automated Biomek FX^P liquid handling workstation. Four hr after plating, 75% of the plating media was replaced by feeding media [Neurobasal-A (Gibco), 4 mM GlutaMAX (Gibco), 2 μg/ml gentamicin, 2% B27 (Gibco)]. At DIV4, 50% of the media was exchanged with fresh feeding media supplemented with 16 μM 5-Fluoro-2′-deoxyuridine (FUdR) to prevent glial cell over-growth. […]
structure (smiles),measurement,value
COC(=O)C1=C(C)NC(C)=C(C(=O)OC)C1c1ccccc1[N+](=O)[O-] [NIFEDIPINE],Dendritic Mt CA,2.85 robust Z-scores
same,Neurite Area,0.22 robust Z-scores

# Source: US20230003721A1, “MITOTHERAPEUTICS FOR THE TREATMENT OF BRAIN DISORDERS” (The University of Florida Research Foundation, Inc., priority 2019, published 2023)
